“And” between values parts separate entries of the source, which are not always exact repeats. Equal entries are not always repeated.
Legend:
[1] = tested on: human breast adenocarcinoma (MCF-7); assay type: cell-based; details: SI = IC50 BALB/3T3 / IC50 MCF-7
Source text: (§1) The BALB/3T3 cell line was purchased from the American Type Culture Collection (ATCC, Manassas, VA, USA), A549 and MCF-7 cell lines—from European Collection of Authenticated Cell Cultures (Salisbury, UK), LoVo cell line was purchased from the ATCC (ATCC, Manassas, VA, USA), and LoVo/DX by courtesy of Prof. E. Borowski (Technical University of Gdańsk, Gdańsk, Poland). All the cell lines are maintained in the Institute of Immunology and Experimental Therapy (IIET), Wroclaw, Poland. […] Human breast adenocarcinoma cell line was cultured in mixture of Eagle medium (IIET, Wroclaw, Poland), supplemented with 10% fetal bovine serum, 2 mM L-glutamine, 8 μg/mL insulin and 1% amino-acids (Sigma-Aldrich, Merck KGaA, Saint Louis, MO, USA). […] Murine embryonic fibroblast cells were cultured in Dulbecco medium (Life Technologies Limited, Paisley, UK), supplemented with 10% fetal bovine serum (GE Healthcare, Logan, UT, USA) and 2 mM glutamine (Sigma-Aldrich, Merck KGaA, Saint Louis, MO, USA). All culture media contained antibiotics: 100 U/mL penicillin and 100 μg/mL streptomycin (Polfa-Tarchomin, Warsaw, Poland). All cell lines were cultured during entire experiment in humid atmosphere at 37 °C and 5% CO2. […] The procedure is repeated every year or in the case of less frequently used lines: after thawing.
(§2) Twenty-four hours before adding the tested compounds, all cell lines were seeded in 96-well plates (Sarstedt, Nümbrecht, Germany) in appropriate media with 10^4 cells per well. All cell lines were exposed to each tested agent at four different concentrations in the range 100–0.01 μg/mL for 72 h. […] Additionally, all cell lines were exposed to DMSO (solvent used for tested compounds) (POCh, Gliwice, Poland) at concentrations corresponding to those present in tested agents’ dilutions. After 72 h sulforhodamine B assay (SRB) was performed.
(§3) After 72 h of incubation with the tested compounds, cells were fixed in situ by gently adding of 50 μL per well of cold 50% trichloroacetic acid TCA (POCh, Gliwice, Poland) and were incubated at 4 °C for one hour. Following, wells were washed four times with water and air dried. Next, 50 μL of 0.1% solution of sulforhodamine B (Sigma-Aldrich, Merck KGaA, Saint Louis, MO, USA) in 1% acetic acid (POCh, Gliwice, Poland) were added to each well and plates were incubated at room temperature for 0.5 h. After incubation time, unbound dye was removed by washing plates four times with 1% acetic acid whereas stain bound to cells was solubilized with 10 mM Tris base (Sigma-Aldrich, Steinheim, Germany). Absorbance of each solution was read at Synergy H4 Hybrid Multi-Mode Microplate Reader (BioTek Instruments, Inc., Winooski, VT, USA) at the 540 nm wavelength.
(§4) Compounds at each concentration were tested in triplicates in single experiment and each experiment was repeated at least three times independently. The Resistance Index (RI) was defined as the ratio of IC50 for a given compound calculated for resistant cell line to that measured for its parental drug sensitive cell line (Table 1).

[2] = tested on: human colon adenocarcinoma cell line (LoVo); assay type: cell-based; details: SI = IC50 BALB/3T3 / IC50 LoVo
Source text: as §1, §2, §3, §4

[3] = tested on: human lung adenocarcinoma (A549); assay type: cell-based; details: SI = IC50 BALB/3T3 / IC50 A549
Source text: as §1, §2, §3, §4

[4] = tested on: doxorubicin-resistant subline (LoVo/DX); assay type: cell-based, human; details: for LoVo/DX RI (Resistance Index): RI = IC50 LoVo/DX / IC50 LoVo; for LoVo/DX SI: SI = IC50 BALB/3T3 / IC50 LoVo/DX
Source text: as §1, §2, §3, §4

Structure (SMILES) | MCF-7 SI [1] | LoVo SI [2] | A549 SI [3] | LoVo/DX RI (Resistance Index) [4] | LoVo/DX SI [4]
COc1c(Br)c2c(c(OC)c1OC)-c1ccc(OC)c(=O)cc1[C@@H](NC(C)=O)CC2 [Compound 5, 4-bromocolchicine] | 5.26 and 5.3 | 1.7 | 1.4 | 18.5 | 0.1
COc1c(Cl)c2c(c(OC)c1OC)-c1ccc(OC)c(=O)cc1[C@@H](NC(C)=O)CC2 [Compound 3, 4-chlorocolchicine] | 6.0 | 2.0 | 3.0 | 11.4 | 0.2
COc1c(I)c2c(c(OC)c1OC)-c1ccc(OC)c(=O)cc1[C@@H](NC(C)=O)CC2 [Compound 7, 4-iodocolchicine] | 1.4 | 13.5 | 1.4 | 278.0 | 0.1
N.N.[Cl][Pt][Cl] [Cisplatin, reference compound] | 0.4 | 0.9 | 0.6 | 1.3 | 0.7
COc1c(Br)c2c(c(OC)c1OC)-c1ccc(SC)c(=O)cc1[C@@H](NC(C)=O)CC2 [Compound 6, 4-bromothiocolchine] | 6.76–11.85 and 6.9 | 5.45–16.43 and 7.4 | 10.08–10.45 and 10.3 | 9.6 | 0.8
COc1c(Cl)c2c(c(OC)c1OC)-c1ccc(SC)c(=O)cc1[C@@H](NC(C)=O)CC2 [Compound 4] | 1.0 | 1.0 | 1.0 | 5.1 | 0.2
COc1c(I)c2c(c(OC)c1OC)-c1ccc(SC)c(=O)cc1[C@@H](NC(C)=O)CC2 [Compound 8, 4-iodothiocolchicine] | 6.76–11.85 and 6.8 |  | 10.08–10.45 and 10.5 | 91.7 | 0.2

From publication PMC6262536 (Cells, 2018)
